The other results are listed elsewhere or left out. The data scatter; read single values as rough.
Compound: ClCC(=O)N[C@H]1CCCc2ccccc12
Assay: log2 mean competition ratio of IA-DTB cysteine labelling (DMSO/compound) (log2 ratio); higher = stronger cysteine engagement by compound
Conditions: 50 µM; treatment time: 4 h; cell line lysate: HEK293T
Method: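 IA-DTB competitive cysteine chemoproteomics in HEK293T RIPA lysate. Lysates were treated with compound 29 or 30 at 50 or 200 µM for 4 h, then IA-DTB (500 µM, 1 h), trypsin-digested, NeutrAvidin-enriched and analysed by diaPASEF. Competition ratio = intensity DMSO / intensity compound (n=4 treated, n=64 DMSO); binding: mean log2 CR ≥ 1 and p ≤ 0.05 plus QC filters. Target is the cysteine site.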

By UniProt entry, the sequences of proteins in these tests, tags left out. Where a name states a change or a piece, a line headed by the entry shows the natural chain unless it says otherwise. Residues count along the entry.
UniProt Q9Y4G6, 2400-2424: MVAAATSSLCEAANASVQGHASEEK
UniProt O15321, whole entry, looked up: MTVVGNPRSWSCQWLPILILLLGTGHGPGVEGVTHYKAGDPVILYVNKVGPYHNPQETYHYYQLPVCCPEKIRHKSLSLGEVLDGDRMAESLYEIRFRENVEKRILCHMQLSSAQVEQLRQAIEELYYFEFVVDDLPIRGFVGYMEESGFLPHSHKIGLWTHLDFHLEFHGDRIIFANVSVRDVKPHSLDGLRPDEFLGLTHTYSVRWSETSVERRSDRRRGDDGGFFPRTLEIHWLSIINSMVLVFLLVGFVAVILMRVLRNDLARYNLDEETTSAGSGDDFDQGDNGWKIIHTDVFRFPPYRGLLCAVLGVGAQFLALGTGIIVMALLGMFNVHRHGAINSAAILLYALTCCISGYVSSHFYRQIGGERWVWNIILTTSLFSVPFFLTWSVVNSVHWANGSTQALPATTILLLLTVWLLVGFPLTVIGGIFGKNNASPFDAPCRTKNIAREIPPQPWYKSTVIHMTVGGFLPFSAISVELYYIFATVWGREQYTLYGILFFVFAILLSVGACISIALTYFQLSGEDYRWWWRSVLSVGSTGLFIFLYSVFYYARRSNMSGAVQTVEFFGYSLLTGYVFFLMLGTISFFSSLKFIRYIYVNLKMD
UniProt Q96HA7: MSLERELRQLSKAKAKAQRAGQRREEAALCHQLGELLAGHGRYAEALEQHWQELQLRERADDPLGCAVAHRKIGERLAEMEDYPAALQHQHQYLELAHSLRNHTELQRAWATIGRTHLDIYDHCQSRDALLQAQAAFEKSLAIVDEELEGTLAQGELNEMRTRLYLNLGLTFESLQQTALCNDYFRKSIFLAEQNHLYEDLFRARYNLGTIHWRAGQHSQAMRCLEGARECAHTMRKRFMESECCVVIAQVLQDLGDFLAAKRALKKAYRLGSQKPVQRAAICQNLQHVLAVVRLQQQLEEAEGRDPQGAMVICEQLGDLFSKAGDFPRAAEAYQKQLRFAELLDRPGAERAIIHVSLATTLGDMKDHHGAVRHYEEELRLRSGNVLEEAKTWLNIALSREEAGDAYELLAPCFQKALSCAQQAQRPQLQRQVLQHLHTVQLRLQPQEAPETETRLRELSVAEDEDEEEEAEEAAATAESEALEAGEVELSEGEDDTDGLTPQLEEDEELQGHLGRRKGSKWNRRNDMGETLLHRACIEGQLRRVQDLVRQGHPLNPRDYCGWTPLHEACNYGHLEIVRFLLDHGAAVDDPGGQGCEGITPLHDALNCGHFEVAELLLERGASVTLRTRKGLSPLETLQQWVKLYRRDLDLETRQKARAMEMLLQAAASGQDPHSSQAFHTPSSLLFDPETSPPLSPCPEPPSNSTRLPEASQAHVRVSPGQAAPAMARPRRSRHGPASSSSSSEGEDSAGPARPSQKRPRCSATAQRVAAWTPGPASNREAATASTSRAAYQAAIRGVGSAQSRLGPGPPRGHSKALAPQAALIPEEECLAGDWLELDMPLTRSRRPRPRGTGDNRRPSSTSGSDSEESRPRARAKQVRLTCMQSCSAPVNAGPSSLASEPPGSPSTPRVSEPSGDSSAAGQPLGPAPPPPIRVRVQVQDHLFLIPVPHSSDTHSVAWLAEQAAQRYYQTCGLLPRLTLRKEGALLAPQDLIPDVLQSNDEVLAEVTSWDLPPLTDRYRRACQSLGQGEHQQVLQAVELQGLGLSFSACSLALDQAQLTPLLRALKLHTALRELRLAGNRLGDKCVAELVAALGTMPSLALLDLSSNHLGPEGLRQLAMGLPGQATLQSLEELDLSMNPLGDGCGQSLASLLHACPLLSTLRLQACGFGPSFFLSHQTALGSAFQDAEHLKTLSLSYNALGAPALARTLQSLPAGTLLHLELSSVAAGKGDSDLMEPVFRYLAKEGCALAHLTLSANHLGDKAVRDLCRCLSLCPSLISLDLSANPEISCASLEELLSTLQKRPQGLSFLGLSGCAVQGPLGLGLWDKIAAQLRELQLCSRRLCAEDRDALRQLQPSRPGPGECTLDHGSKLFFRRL
UniProt Q8TBR7: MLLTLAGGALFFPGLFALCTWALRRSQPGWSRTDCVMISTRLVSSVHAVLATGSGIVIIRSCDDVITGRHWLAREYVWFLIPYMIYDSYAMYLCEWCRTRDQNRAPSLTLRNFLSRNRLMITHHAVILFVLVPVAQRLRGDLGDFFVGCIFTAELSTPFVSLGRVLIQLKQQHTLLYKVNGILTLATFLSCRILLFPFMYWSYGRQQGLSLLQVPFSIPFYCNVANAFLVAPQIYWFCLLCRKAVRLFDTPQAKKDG
UniProt Q12888, 586-605: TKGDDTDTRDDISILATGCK
UniProt A5PLN9: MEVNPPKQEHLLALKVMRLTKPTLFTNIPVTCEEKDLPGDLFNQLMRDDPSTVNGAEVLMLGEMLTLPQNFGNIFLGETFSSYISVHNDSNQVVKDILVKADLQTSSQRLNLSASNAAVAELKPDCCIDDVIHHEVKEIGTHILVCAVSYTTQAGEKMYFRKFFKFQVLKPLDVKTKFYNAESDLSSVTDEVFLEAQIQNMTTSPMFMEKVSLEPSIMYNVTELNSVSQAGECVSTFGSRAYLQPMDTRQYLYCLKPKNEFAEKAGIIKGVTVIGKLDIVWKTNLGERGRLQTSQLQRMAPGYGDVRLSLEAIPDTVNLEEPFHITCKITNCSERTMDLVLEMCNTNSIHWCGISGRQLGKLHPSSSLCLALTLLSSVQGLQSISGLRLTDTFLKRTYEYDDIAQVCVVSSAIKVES
UniProt Q15643: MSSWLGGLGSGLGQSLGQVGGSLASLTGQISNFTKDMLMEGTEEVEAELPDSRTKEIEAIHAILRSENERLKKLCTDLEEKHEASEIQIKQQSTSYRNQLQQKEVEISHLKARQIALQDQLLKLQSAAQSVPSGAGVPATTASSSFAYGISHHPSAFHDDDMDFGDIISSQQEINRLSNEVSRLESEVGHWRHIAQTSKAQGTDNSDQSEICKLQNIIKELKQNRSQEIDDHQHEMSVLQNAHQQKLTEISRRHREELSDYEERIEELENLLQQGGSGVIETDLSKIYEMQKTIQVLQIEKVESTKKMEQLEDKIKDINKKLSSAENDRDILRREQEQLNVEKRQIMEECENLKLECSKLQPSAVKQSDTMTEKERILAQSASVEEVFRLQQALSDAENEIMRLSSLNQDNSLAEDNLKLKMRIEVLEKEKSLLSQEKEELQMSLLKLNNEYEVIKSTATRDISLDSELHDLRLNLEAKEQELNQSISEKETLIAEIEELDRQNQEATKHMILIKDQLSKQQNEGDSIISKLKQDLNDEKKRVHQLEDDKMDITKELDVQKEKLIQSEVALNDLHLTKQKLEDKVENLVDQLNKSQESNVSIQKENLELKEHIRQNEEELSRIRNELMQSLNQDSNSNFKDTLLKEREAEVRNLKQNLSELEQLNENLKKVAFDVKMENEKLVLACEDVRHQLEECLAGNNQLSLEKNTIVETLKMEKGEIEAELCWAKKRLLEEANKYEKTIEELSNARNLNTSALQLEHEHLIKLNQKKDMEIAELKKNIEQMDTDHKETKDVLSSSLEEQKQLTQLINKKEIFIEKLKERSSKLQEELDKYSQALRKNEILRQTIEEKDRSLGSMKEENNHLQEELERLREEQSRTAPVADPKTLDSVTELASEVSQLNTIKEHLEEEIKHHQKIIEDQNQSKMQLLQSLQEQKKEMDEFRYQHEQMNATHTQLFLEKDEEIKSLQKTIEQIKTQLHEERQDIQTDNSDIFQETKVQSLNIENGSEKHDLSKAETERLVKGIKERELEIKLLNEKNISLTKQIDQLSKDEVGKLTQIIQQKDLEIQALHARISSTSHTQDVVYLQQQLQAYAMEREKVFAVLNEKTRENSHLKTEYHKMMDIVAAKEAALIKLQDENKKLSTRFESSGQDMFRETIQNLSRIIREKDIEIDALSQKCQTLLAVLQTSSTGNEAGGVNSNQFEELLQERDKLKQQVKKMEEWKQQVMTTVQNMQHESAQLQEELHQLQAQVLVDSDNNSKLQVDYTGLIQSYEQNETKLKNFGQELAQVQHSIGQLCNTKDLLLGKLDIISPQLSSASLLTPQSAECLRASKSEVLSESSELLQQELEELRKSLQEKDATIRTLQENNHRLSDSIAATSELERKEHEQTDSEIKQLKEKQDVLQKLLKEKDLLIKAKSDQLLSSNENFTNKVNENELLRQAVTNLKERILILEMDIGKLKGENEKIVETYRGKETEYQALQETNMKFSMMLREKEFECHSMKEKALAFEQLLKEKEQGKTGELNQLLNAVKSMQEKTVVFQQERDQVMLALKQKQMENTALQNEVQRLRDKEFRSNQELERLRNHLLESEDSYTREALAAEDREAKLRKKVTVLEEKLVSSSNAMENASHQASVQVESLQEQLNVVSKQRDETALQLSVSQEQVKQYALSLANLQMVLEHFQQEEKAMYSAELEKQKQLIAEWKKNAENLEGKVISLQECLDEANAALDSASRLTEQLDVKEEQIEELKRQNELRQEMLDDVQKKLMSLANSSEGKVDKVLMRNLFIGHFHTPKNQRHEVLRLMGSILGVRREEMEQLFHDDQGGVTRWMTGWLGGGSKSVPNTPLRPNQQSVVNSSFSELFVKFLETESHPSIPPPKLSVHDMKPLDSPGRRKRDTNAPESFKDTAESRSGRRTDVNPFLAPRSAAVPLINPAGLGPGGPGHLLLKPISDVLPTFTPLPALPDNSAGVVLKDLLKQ
UniProt Q3LXA3: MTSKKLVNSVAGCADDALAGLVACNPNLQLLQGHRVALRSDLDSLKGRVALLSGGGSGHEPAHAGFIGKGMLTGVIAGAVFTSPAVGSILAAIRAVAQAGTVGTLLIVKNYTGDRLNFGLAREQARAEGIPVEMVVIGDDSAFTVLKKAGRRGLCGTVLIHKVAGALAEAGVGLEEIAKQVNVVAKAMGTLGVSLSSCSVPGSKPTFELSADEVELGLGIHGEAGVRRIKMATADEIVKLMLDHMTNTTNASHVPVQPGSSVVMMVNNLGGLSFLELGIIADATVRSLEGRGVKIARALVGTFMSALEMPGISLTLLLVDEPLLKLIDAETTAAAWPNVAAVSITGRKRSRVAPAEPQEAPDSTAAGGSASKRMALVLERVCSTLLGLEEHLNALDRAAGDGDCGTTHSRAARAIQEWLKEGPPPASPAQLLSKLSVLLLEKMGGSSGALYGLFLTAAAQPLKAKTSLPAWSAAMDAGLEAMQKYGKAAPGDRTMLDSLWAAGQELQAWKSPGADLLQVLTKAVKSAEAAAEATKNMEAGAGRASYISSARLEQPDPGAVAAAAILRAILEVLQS
UniProt Q9UDY2: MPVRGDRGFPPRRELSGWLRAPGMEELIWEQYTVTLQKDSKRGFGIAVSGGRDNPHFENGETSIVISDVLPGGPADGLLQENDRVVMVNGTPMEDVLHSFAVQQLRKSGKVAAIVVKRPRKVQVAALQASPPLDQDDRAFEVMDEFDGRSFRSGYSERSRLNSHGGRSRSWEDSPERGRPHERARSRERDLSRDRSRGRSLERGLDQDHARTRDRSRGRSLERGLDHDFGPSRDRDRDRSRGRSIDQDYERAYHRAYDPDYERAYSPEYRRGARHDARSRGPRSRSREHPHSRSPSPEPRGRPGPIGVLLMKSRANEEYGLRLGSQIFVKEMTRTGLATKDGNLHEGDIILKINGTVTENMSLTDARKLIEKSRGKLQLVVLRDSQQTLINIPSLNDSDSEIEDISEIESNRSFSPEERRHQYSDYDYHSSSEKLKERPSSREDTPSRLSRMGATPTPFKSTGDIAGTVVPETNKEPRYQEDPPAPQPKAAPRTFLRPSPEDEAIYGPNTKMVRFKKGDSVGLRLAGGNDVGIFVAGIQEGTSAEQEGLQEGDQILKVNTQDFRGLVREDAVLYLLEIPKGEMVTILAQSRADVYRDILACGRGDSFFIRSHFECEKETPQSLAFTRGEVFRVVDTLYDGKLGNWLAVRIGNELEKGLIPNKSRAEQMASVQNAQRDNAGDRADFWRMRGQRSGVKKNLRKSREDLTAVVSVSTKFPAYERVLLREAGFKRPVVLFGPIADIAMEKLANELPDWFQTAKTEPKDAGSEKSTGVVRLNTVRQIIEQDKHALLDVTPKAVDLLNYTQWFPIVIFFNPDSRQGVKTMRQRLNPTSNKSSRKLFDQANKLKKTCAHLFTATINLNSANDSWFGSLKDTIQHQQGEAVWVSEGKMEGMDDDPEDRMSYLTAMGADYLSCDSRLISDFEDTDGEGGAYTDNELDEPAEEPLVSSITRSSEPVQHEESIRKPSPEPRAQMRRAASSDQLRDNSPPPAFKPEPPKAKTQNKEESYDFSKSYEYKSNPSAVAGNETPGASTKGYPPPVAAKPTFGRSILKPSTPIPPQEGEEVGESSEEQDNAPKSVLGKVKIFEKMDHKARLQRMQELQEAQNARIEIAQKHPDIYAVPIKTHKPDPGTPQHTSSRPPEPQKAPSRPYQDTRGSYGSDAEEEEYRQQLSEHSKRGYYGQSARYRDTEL

| Target | log2 mean competition ratio |
| --- | --- |
| TRIM33 C153 | 0.0581 |
| TOMM70 C317 (UniProt O94826) | -0.0658 |
| TLN2 C2409 (UniProt Q9Y4G6) | -0.445 |
| TPMT C70 (UniProt P51580) | 0.255 |
| TM9SF1 C445 (UniProt O15321) | 0.352 |
| TONSL C1365 (UniProt Q96HA7) | 0.0672 |
| TLCD3A C35 (UniProt Q8TBR7) | 0.0403 |
| TRIP12 C156 (UniProt Q14669) | 0.12 |
| TOPBP1 C1099 (UniProt Q92547) | 0.0309 |
| TRDMT1 C222 (UniProt O14717) | -0.204 |
| TP53BP1 C604 (UniProt Q12888) | -0.389 |
| TRAPPC13 C32 (UniProt A5PLN9) | -0.235 |
| TRIP6 C429 (UniProt Q15654) | 0.281 |
| TRIP11 C212 (UniProt Q15643) | -0.431 |
| TMEM143 C408 (UniProt Q96AN5) | -0.0515 |
| TKFC C382 (UniProt Q3LXA3) | 0.488 |
| TJP2 C601 (UniProt Q9UDY2) | 0.263 |
| TPR C224 (UniProt P12270) | 0.276 |
| TK1 C185 | -0.188 |
| TMEM199 C124 (UniProt Q8N511) | -0.175 |

Same assay, conditions: 200 µM; treatment time: 4 h; cell line lysate: HEK293T

| Target | log2 mean competition ratio |
| --- | --- |
| TRIM33 C153 | 0.103 |
| TOMM70 C317 (UniProt O94826) | -0.0893 |
| TLN2 C2409 (UniProt Q9Y4G6) | -0.403 |
| TPMT C70 (UniProt P51580) | -0.0184 |
| TM9SF1 C445 (UniProt O15321) | 0.191 |
| TONSL C1365 (UniProt Q96HA7) | 0.0637 |
| TLCD3A C35 (UniProt Q8TBR7) | 0.0721 |
| TRIP12 C156 (UniProt Q14669) | 0.0332 |
| TOPBP1 C1099 (UniProt Q92547) | 0.0518 |
| TRDMT1 C222 (UniProt O14717) | -1.07 |
| TP53BP1 C604 (UniProt Q12888) | 0.221 |
| TRAPPC13 C32 (UniProt A5PLN9) | 0.0283 |
| TRIP6 C429 (UniProt Q15654) | -0.326 |
| TRIP11 C212 (UniProt Q15643) | 0.0715 |
| TMEM143 C408 (UniProt Q96AN5) | -0.2 |
| TKFC C382 (UniProt Q3LXA3) | 0.45 |
| TJP2 C601 (UniProt Q9UDY2) | -0.0722 |
| TPR C224 (UniProt P12270) | -0.402 |
| TK1 C185 | 0.207 |
| TMEM199 C124 (UniProt Q8N511) | 0.0527 |
